Sequences and labels used below:
T1: GST fusion with the receptor interaction domains (RID) of NCoRω (amino acids 1817–2453) (UniProt Q60974)
T1 sequence: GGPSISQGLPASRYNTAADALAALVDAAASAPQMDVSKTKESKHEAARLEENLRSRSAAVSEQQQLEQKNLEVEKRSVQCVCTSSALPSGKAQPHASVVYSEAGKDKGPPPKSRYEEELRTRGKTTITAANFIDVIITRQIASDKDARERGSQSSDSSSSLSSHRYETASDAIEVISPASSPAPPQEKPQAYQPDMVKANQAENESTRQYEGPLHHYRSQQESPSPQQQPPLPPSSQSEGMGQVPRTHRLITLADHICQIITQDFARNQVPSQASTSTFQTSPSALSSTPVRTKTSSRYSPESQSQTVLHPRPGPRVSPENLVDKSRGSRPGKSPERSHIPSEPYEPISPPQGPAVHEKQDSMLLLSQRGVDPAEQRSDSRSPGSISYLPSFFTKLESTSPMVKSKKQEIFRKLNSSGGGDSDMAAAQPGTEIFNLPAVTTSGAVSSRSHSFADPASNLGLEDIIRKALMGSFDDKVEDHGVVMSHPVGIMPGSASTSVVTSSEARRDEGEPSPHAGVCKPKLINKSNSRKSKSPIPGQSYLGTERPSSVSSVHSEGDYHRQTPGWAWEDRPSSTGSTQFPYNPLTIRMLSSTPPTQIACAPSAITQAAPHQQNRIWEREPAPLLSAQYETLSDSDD

Amino acid sequences for entries named in this document (tags omitted).
UniProt P37231: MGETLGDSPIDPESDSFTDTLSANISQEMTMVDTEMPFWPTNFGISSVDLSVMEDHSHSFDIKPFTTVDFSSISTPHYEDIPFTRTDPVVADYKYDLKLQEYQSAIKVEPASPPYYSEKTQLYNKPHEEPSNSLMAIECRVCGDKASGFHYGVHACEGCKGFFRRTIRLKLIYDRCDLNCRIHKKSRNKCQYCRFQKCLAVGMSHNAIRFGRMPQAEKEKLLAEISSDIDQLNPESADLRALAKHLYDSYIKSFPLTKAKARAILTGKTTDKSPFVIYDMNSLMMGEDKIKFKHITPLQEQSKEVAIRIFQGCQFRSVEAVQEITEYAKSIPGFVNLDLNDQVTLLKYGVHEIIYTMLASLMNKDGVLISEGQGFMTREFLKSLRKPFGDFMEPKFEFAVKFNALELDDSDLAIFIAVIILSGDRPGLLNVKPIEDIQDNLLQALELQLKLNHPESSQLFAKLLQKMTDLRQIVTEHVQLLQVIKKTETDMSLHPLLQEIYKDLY

B1: Farnesoid X Receptor (receptor, UniProt Q96RI1 1-486)
chain: MVMQFQGLENPIQISPHCSCTPSGFFMEMMSMKPAKGVLTEQVAGPLGQNLEVEPYSQYSNVQFPQVQPQISSSSYYSNLGFYPQQPEEWYSPGIYELRRMPAETLYQGETEVAEMPVTKKPRMGASAGRIKGDELCVVCGDRASGYHYNALTCEGCKGFFRRSITKNAVYKCKNGGNCVMDMYMRRKCQECRLRKCKEMGMLAECMYTGLLTEIQCKSKRLRKNVKQHADQTVNEDSEGRDLRQVTSTTKSCREKTELTPDQQTLLHFIMDSYNKQRMPQEITNKILKEEFSAEENFLILTEMATNHVQVLVEFTKKLPGFQTLDHEDQIALLKGSAVEAMFLRSAEIFNKKLPSGHSDLLEERIRNSGISDEYITPMFSFYKSIGELKMTQEEYALLTAIVILSPDRQYIKDREAVEKLQEPLLDVLQKLCKIHQPENPQHFACLLGRLTELRTFNHHHAEMLMSWRVNDHKFTPLLCEIWDVQ
modifications: 35S-radiolabeled
B2: Peroxisome Proliferator Activated Receptor α (receptor, UniProt Q07869 1-468)
chain: MVDTESPLCPLSPLEAGDLESPLSEEFLQEMGNIQEISQSIGEDSSGSFGFTEYQYLGSCPGSDGSVITDTLSPASSPSSVTYPVVPGSVDESPSGALNIECRICGDKASGYHYGVHACEGCKGFFRRTIRLKLVYDKCDRSCKIQKKNRNKCQYCRFHKCLSVGMSHNAIRFGRMPRSEKAKLKAEILTCEHDIEDSETADLKSLAKRIYEAYLKNFNMNKVKARVILSGKASNNPPFVIHDMETLCMAEKTLVAKLVANGIQNKEAEVRIFHCCQCTSVETVTELTEFAKAIPGFANLDLNDQVTLLKYGVYEAIFAMLSSVMNKDGMLVAYGNGFITREFLKSLRKPFCDIMEPKFDFAMKFNALELDDSDISLFVAAIICCGDRPGLLNVGHIEKMQEGIVHVLRLHLQSNHPDDIFLFPKLLQKMADLRQLVTEHAQLVQIIKKTESDAALHPLLQEIYRDMY
modifications: 35S-radiolabeled
B3: Liver X Receptor α (receptor, UniProt Q13133 1-447)
chain: MSLWLGAPVPDIPPDSAVELWKPGAQDASSQAQGGSSCILREEARMPHSAGGTAGVGLEAAEPTALLTRAEPPSEPTEIRPQKRKKGPAPKMLGNELCSVCGDKASGFHYNVLSCEGCKGFFRRSVIKGAHYICHSGGHCPMDTYMRRKCQECRLRKCRQAGMREECVLSEEQIRLKKLKRQEEEQAHATSLPPRASSPPQILPQLSPEQLGMIEKLVAAQQQCNRRSFSDRLRVTPWPMAPDPHSREARQQRFAHFTELAIVSVQEIVDFAKQLPGFLQLSREDQIALLKTSAIEVMLLETSRRYNPGSESITFLKDFSYNREDFAKAGLQVEFINPIFEFSRAMNELQLNDAEFALLIAISIFSADRPNVQDQLQVERLQHTYVEALHAYVSIHHPHDRLMFPRMLMKLVSLRTLSSVHSEQVFALRLQDKKLPPLLSEIWDVHE
modifications: 35S-radiolabeled

These are yes or no findings as the source states them, for the method shown. In cells and extracts the contact can be indirect. Some entries that bind do so weakly or less than the wild type. Tags and fused reporters may be left off the sequences shown.

In the experiment the target is T1, GST fusion with the receptor interaction domains (RID) of NCoRω (amino acids 1817–2453). The experiment is described as follows: pull-down; GST fusion protein (~50 ng) immobilised on ~10 μl glutathione-agarose; 35S-radiolabeled in vitro translated nuclear receptor (2–5 μl TnT product) in 120 μl HEMG buffer (4 mM HEPES pH 7.8, 0.2 mM EDTA, 5 mM MgCl2, 10% glycerol, 100 mM KCl, 0.1% Nonidet P-40, 1.5 mM DTT) with 10 mg/ml BSA; 3 hr at 4°C; eluted with 10 mM glutathione, SDS-PAGE, PhosphorImager; only the target purified.
In the case of “Peroxisome Proliferator Activated Receptor γ (from UniProt P37231 1-505)”, the binding result is “binds”.

As to B1, the binding result is recorded as “binds”.

In the case of B2, the binding result is “binds”.

For B3, the binding entry is “binds”.

The record behind these values is PMC7588069.
